Our source for the cell number change and AC50 values is PubChem BioAssay AID2685 (National Center for Advancing Translational Sciences (NCATS), 2010).

Values joined by “and” are separate entries in the source; they are usually repeats but may differ in a detail not shown here. Equal values may be shown once. This is one part of the list. Shown are side measurements of this screen, not its main read-out; they come without a call. The list favours compounds with an active or inconclusive main result. Words in brackets tell the shape of the fitted curve; partial curves, single points and poor fits give uncertain potencies.

A short description of this experiment: qHTS Assay for Lipid Storage Modulators in Drosophila S3 Cells.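 On cell number change: cells counted by Cell Tracker Red CMTPX staining in the red channel.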 Conditions: BODIPY lipid droplet fluorescence, 18-24 h; for cell number change: measured here: cell count max response, cells fed with added oleic acid. The essentials:
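Drosophila S3 cells loaded with oleic acid (400 uM, as added) and compounds at several concentrations; lipid droplets imaged by 488-nm laser-scanning cytometry, 500–530 nm intensity and object ratio to cell channel. Percent activity normalized to 20 uM Triacsin C.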

Setting [1] is: measured here: cell number channel AC50, cells fed with added oleic acid.
Where [2] appears, read: measured here: lipid fluorescence (Fed channel) AC50, cells fed with added oleic acid.

For `Fc1ccc(-c2csc3ncnc(Cl)c23)cc1`, the cell number change was -31.7%. For the same molecule, the AC50 under setting [1] is 7.31 µM [falling, partial curve]. The AC50 under setting [2] was 16.4 µM [falling, partial curve, poor fit].

For the molecule `O=c1oc2ccc([N+](=O)[O-])cc2c(N2CCOCC2)c1[N+](=O)[O-]`, the cell number change worked out at 25.6%. Also, the AC50 under setting [2] is 32.6 µM [rising, single point]. Turning to `COC(=O)Cc1c(C)c2ccc(OCC(=O)N3CCCC3)c(C)c2oc1=O`, the AC50 under setting [2] is 29.1 µM [falling, single point].

With `CCCOc1ccccc1C1NC(=O)NC(C)=C1C(=O)OCCOC` (stereo not given), the cell number change was 3.07%. Moreover, under setting [2], the AC50 was 0.146 µM [falling, full curve, poor fit]. With `CCCCc1c(C)nn(-c2nnc3c4ccccc4n(CC)c3n2)c1C`, the cell number change was -52.6%. In addition, the AC50 under setting [1] was 11.6 µM [falling, partial curve, poor fit]. Further, the AC50 under setting [2] is 23.1 µM [falling, single point]. For the molecule `Cc1ccc(SCC(=O)NCc2ccncc2)cc1`, the cell number change amounted to 100%. The AC50 under setting [1] was 1.46 µM [rising, partial curve]. Also, the AC50 under setting [2] is 0.731 µM [rising, partial curve, poor fit]. Turning to `O=C(c1cc(-c2ccccc2)nc2ccccc12)N1CCOCC1`, the cell number change was -18.5%. For the same molecule, the AC50 under setting [2] is 7.31 µM [rising, partial curve, poor fit]. `CN(C)CCn1c2ccccc2c2nc3ccc([N+](=O)[O-])cc3cc21`: under setting [2], the concentration at half-maximal activity (AC50) is 20.6 µM [falling, single point].

`CCOc1ccc(NC(=O)CN(C)C(=O)c2ccc(N3CCCCC3)c([N+](=O)[O-])c2)cc1OCC`: under setting [2], the AC50 was 29.1 µM [rising, single point]. In the case of `O=c1c2ccccc2n2nnnc2n1-c1ccccc1`, the cell number change is -15.6%. Also, the AC50 under setting [1] is 0.00731 µM [falling, full curve, poor fit]. With `O=C(Cc1cccc(C(F)(F)F)c1)Nc1ccc(S(=O)(=O)N2CCCC2)cc1`, the cell number change is -61.2%. The AC50 under setting [1] is 14.6 µM [falling, partial curve]. Take `CCOC(=O)CC(=O)CSc1nc2c(cc1C#N)CCCCCC2`: the cell number change was found to be 22%. For the same molecule, under setting [1], the AC50 is 0.0103 µM [rising, full curve, poor fit].

Turning to `CCOC(=O)C1CCCCN1Cc1ccccc1C(F)(F)F` (stereo not given), the cell number change came out at 34.5%. Besides, the AC50 under setting [1] is 29.1 µM [rising, single point]. Consider `Cc1ccc(C(CC(=O)N2CCOCC2)c2ccco2)cc1` (stereo not given), for which the cell number change is -29.2%. For the same molecule, the AC50 under setting [2] was 18.4 µM [falling, partial curve]. For `c1ccc(-n2cc(CN3CCCC3)c(-c3ccc4c(c3)OCO4)n2)cc1`, the cell number change worked out at 0.393%. Consider `Cc1cc2c(s1)c1cnn(Cc3ccccc3F)c(=O)c1n2C`, for which the cell number change is 43.8% and -9.19%. Moreover, the AC50 under setting [1] is 11.6 µM [rising, partial curve, poor fit]. For the same molecule, under setting [2], the AC50 was 25.9 µM [rising, partial curve] and 731 nM [rising, full curve, poor fit]. Take `Cc1nnnn1/C(=C\c1ccccc1)C(=O)OCC(=O)NC1CCCCC1`: the cell number change was found to be 1.11%. For the same molecule, under setting [1], the AC50 was 0.731 µM [falling, full curve, poor fit]. Moreover, the AC50 under setting [2] is 5.8 µM [falling, full curve]. For `Oc1ccccc1CNCCCNCc1ccccc1O`, the AC50 under setting [2] was 1.16 µM [falling, single point]. `COCC(=O)Nc1ccccc1Br`: the cell number change was 12.2%. Besides, the AC50 under setting [1] was 4.61 µM [falling, single point]. As for `CC1(C)SC(=S)N(/N=C/c2ccc(O)cc2)C1N(O)C(=O)Nc1ccc([N+](=O)[O-])cc1` (stereo not given), the cell number change is -5.91%. Also, under setting [2], the AC50 is 11.6 µM [rising, partial curve, poor fit]. Take `O=C(CCCCCNC(=O)N1CCn2c1nc1ccccc12)NCCc1ccccc1`: the cell number change came to 17.7%. Moreover, the AC50 under setting [2] is 2.91 µM [rising, full curve]. `Cc1nnc(NN2CCOCC2)[nH]c1=O`: the cell number change was -37%. Also, the AC50 under setting [1] was 0.00517 µM [falling, full curve, poor fit]. Besides, the AC50 under setting [2] was 0.0058 µM [falling, full curve, poor fit]. `Cc1nnc(SCC(=O)Nc2sc3c(c2C(N)=O)CCC(C)C3)[nH]c1=O` (stereo not given): the cell number change was -19.3%. Besides, the AC50 under setting [2] is 4.11 µM [rising, single point].

With `COc1ccc(OC)c(/C=N/NC(=O)c2cc[n+](CC(=O)c3ccccc3)cc2)c1`, the cell number change was -1.62%. Besides, the AC50 under setting [2] was 0.58 µM [rising, single point].

Regarding `O=C(Nc1ccccc1Br)c1c(F)cccc1Cl`, the cell number change was found to be 4.6%. `O=C(COC(=O)c1ccc(O)cc1)Nc1cccc(S(=O)(=O)N2CCCCC2)c1`: the cell number change was -16.4%.

`O=C(Nc1cc(F)ccc1F)C1CCCN1S(=O)(=O)c1cccc2nsnc12` (stereo not given): the cell number change is 8.75%. The AC50 under setting [2] is 29.1 µM [rising, single point]. Regarding `Cc1nc(NC(=O)c2ccc(Cl)cc2)sc1Cc1ccc2c(c1)OCO2`, the cell number change is -36.3%. The AC50 under setting [1] was 9.2 µM [falling, partial curve, poor fit]. For the same molecule, the AC50 under setting [2] was 2.91 µM [rising, partial curve]. In the case of `Cc1ccc2cccc(Oc3cnccn3)c2n1`, the cell number change came out at 29.6%. The AC50 under setting [2] was 10.3 µM [rising, partial curve, poor fit].

`O=C(NCc1ccc(F)cc1)c1c2c(nc3ccccc13)CCC2`: the cell number change was 38.6%. In addition, the AC50 under setting [1] is 0.0731 µM [rising, full curve, poor fit]. As to `COc1ccc(C(=O)c2cc([N+](=O)[O-])ccc2N2CCCC2)cc1`, the cell number change came out at 1.33%. In the case of `COc1cc(Cl)ccc1OCc1cc(C(=O)N2C[C@]3(C)C[C@H]2CC(C)(C)C3)no1`, the cell number change was 3.91%. In the case of `CCOC(=O)C1=NNC2C(=O)N(C3CCCCC3)C(=O)C12` (stereo not given), the cell number change turned out to be 2.79%. `COc1ccc(OC)c(Cc2nnc(CCC(=O)NC3CCCCCCC3)o2)c1`: the cell number change was -32.3%. Besides, the AC50 under setting [1] was 23.1 µM [falling, single point]. Besides, the AC50 under setting [2] is 2.91 µM [falling, full curve, poor fit]. Regarding `CC1(C)NS(=O)(=O)Oc2ccccc21`, the cell number change turned out to be 14.6%.

For `CC(NC(=S)Nc1ccc(OC(F)F)c(Cl)c1)C(C)(C)C` (stereo not given), the cell number change is -62.4%. In addition, the AC50 under setting [1] is 18.4 µM [falling, single point]. For the same molecule, the AC50 under setting [2] was 29.1 µM [falling, partial curve]. In the case of `COc1cccc(CNCCc2c[nH]c3ccccc23)c1OCc1ccccc1F`, the cell number change is -78.7%. For the same molecule, the AC50 under setting [1] is 11.6 µM [falling, partial curve]. In addition, the AC50 under setting [2] is 7.31 µM [falling, partial curve, poor fit].

In the case of `CCc1ccc(-c2nc(SCC(=O)c3c(N)n(C4CC4)c(=O)[nH]c3=O)n[nH]2)cc1`, the cell number change is -0.834%. On to `CC(/C=N/n1c(-c2ccc(C)cc2)n[nH]c1=S)=C\c1ccco1`, for which the cell number change was -41%. For the same molecule, under setting [1], the AC50 was 13 µM [falling, partial curve]. On to `Cc1ccc(C(=O)OCC(=O)Nc2cccc(S(=O)(=O)N3CCOCC3)c2)o1`, for which the cell number change amounted to 17%. Turning to `CCOc1ccc(NC(=O)CCN2C(=O)C3CCCCC3C2=O)cc1OCC` (stereo not given), the cell number change was 24.6%. The AC50 under setting [2] was 5.17 µM [rising, partial curve].

Consider `Cc1cccc(C)c1NC(=O)NC1(C(=O)N2CCCC2)CCCCC1`, for which the cell number change amounted to 11.5%. Besides, the AC50 under setting [2] is 29.1 µM [falling, single point]. Consider `CCOc1ccccc1NC(=O)CSc1ccc([N+](=O)[O-])cc1`, for which the AC50 under setting [1] was 5.8 µM [rising, single point].

As to `CC(=O)CSc1ccc(C(=O)O)cn1`, the cell number change is -20.9%. For the same molecule, the AC50 under setting [2] was 0.0058 µM [falling, full curve, poor fit]. `COc1ccc(NS(=O)(=O)c2cccc3cccnc23)cc1OC`: the cell number change was -4.84%. For the same molecule, the AC50 under setting [2] is 6.51 µM [rising, full curve]. Consider `O=S(=O)(Nc1ccc(-c2ccc(N3CCOCC3)nn2)cc1)c1ccc(Cl)c(Cl)c1`, for which the cell number change came to 36.5%. The AC50 under setting [1] is 8.2 µM [rising, partial curve]. Consider `Cc1cccc(S(=O)Cc2ccc(C(=O)N3CCN(C(=O)c4ccco4)CC3)o2)c1` (stereo not given), for which the cell number change was -17.7%. Moreover, the AC50 under setting [2] was 18.4 µM [rising, single point]. Turning to `N#CC1=C(S)N(c2ccccc2)C(c2ccc(-c3cc(Cl)ccc3Cl)o2)NC1=O` (stereo not given), the cell number change was -15.6%. Also, the AC50 under setting [2] was 0.82 µM [rising, single point].

As for `CN(Cc1ccccc1)C(=O)c1[nH]cnc1C(=O)NCC(=O)OC(C)(C)C`, the cell number change was -5.99%. Also, the AC50 under setting [2] is 16.4 µM [falling, partial curve, poor fit]. For the molecule `CC1(C)CC(=O)C2=C(C1)NC1=C(C(=O)c3ccccc31)C2c1cccnc1` (stereo not given), the cell number change was 13.8%. Also, the AC50 under setting [2] was 7.31 µM [rising, partial curve].

`NC(=O)c1ccccc1NC(=O)CCn1c(=S)oc2ccccc21`: the cell number change stood at 11.3%.

On to `O=C(CN1C(=O)S/C(=C\c2ccc(-c3cc(C(=O)O)ccc3Cl)o2)C1=O)Nc1ccc2c(c1)OCO2`, for which the cell number change was 15.6%. Also, the AC50 under setting [2] is 8.2 µM [falling, partial curve]. Take `COC(=O)c1ccc(NC(=O)CN(Cc2ccc(Cl)cc2)S(C)(=O)=O)cc1`: the cell number change was 73.2%. Besides, the AC50 under setting [1] was 20.6 µM [rising, single point]. As to `Cc1cc(F)ccc1S(=O)(=O)N1CCCCC1CCNC(=O)C(=O)NCCN1CCOCC1` (stereo not given), the cell number change was -30.1%. Also, under setting [1], the AC50 is 20.6 µM [falling, single point]. Besides, the AC50 under setting [2] was 0.146 µM [rising, full curve, poor fit]. Turning to `COc1ncc(C2=CC(=O)CC(C)(C)C2)cn1`, the cell number change was -1.68%. In addition, the AC50 under setting [2] was 1.03 µM [rising, single point]. Take `COc1cccc(S(=O)(=O)NCC(=O)Nc2ccc(C(C)(C)C)cc2)c1`: the cell number change was -33.2%. The AC50 under setting [1] was 23.1 µM [falling, single point]. In addition, under setting [2], the AC50 is 4.11 µM [rising, single point].

On to `CCOC(=O)C(CC(=O)c1ccccc1)CC(=O)c1ccccc1`, for which the cell number change is 30.3%. Besides, the AC50 under setting [1] is 0.0058 µM [rising, full curve, poor fit]. The AC50 under setting [2] was 0.116 µM [rising, full curve, poor fit]. Regarding `CCOC(=O)C1CCc2nc3ccccc3c(=O)n21` (stereo not given), the cell number change is -1.42%. In addition, the AC50 under setting [2] is 0.00461 µM [rising, full curve, poor fit]. Regarding `CCCOc1ccc(C(=O)Nc2cc(-c3nn4c(C)nnc4s3)ccc2C)cc1`, the cell number change is -2.66%.
